{
  "sequences": {"note": "Sequences of proteins named here, by UniProt entry; tags and fusion partners are left off. Residues count along the entry.", "UniProt P12390, 25-500": "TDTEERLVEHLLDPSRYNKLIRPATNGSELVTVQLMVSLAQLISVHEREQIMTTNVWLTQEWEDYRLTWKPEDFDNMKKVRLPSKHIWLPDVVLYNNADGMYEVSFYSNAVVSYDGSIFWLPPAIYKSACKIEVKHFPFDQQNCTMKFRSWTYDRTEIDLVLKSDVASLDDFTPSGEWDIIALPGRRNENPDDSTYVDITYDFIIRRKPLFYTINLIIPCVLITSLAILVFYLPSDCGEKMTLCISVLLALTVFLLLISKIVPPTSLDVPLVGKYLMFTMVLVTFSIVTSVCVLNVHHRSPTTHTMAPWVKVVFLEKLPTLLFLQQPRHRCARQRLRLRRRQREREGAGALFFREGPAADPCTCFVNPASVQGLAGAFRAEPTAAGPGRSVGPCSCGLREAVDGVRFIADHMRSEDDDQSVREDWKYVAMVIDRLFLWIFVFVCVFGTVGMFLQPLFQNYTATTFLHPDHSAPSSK", "UniProt Q05941, 23-502": "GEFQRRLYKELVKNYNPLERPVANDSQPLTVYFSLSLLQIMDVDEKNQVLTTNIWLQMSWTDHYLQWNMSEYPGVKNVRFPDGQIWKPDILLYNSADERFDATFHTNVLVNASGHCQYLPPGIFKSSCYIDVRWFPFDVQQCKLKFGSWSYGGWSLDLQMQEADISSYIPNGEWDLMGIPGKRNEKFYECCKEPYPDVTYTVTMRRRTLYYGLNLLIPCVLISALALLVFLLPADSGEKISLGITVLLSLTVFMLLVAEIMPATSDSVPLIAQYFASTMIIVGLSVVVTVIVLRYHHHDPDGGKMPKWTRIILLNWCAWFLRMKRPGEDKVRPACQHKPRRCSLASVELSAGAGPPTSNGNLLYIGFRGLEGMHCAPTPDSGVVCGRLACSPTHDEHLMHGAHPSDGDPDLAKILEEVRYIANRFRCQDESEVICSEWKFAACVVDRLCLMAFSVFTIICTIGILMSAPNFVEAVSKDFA"},
  "source": "patent US20130231290A1",
  "about": "“METHODS OF DIAGNOSING AND TREATING NEURODEGENERATIVE DISEASES” (DIGNITY HEALTH, priority 2010, published 2013)",
  "biological_target": "α7β2-nAChRs on MS/DB cholinergic neurons (Rattus norvegicus, UniProt P12390+Q05941)",
  "assay": "Perforated-patch whole-cell recording of nAChR-mediated (choline/ACh-induced) currents in acutely dissociated MS/DB cholinergic neurons",
  "type": "cell-based",
  "conditions": "1 mM ACh, 10 mM choline, 0.1 mM RJR-2403",
  "note": "At least one structure is not confirmed: it was looked up by name or label, or the drawing left a doubt.",
  "data": [
    {"smiles": "CC(=O)OCC[N+](C)(C)C", "note": "[ACh, acetylcholine]", "values": [
      {"measurement": "whole-cell current response to agonist", "result": "induced inward current responses"}
    ]}
  ]
}
